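Viability assay of Plasmodium falciparum sporozoites; the read-out is not stated. The concentration is filed as 10 mM, unlikely as a test dose, so the dose is not known. Higher reads as lower viability (inferred: compounds with an IC50 in retests scored well above the rest). Strong results were mostly tested again. About 34,000 compounds were tested under these conditions; 0.84% (about 280) showed 50% or more at least once.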

Values are the deposited “Percent Effect”, in %. The record does not define 0% and 100%; most values in the screen are far below 50% and negative numbers occur (in some assays of this library far below -100). This is an unselected part of the compounds tested. Two or more numbers in one place are separate tests of the same structure; such repeats can differ widely.

structure	Percent Effect
CNC(=O)c1cc(C)n(-c2ccccc2)n1	-4.317%
Cc1cc(Cc2ccc(S(=O)(=O)N3CCCC3)cc2)c(=O)[nH]n1	5.722%
CC(C)Oc1ccccc1CNC(=O)N1CCC(n2cncn2)CC1	-12.17%
O=C(CCc1cccnc1)N1CCCC(n2cncn2)C1 (centres unmarked)	-5.345%
Cc1cccc(OCc2nnc(SCC3CCCN(C)C3)o2)c1 (centres unmarked)	-10.06%
O=C(NCCN1CCOCC1)N1CCN(c2ccccc2)CC1	-8.049%
[H][C@]12CC[C@](O)(c3ccc(C)cc3)[C@@]1([H])CN(S(=O)(=O)c1cn(C)nc1C)C2	6.835%
CCOC(=O)CCNC(=O)c1nc(OCC)ccc1Cl	13.38%
CC1(C(=O)NC2CCCC2)CN(c2cnccn2)CCO1 (centres unmarked)	13.99%
COCCN1CCC2(COCc3cnc(N4CCOCC4)nc32)C1.O=C(O)C(F)(F)F (centres unmarked)	-9.804%
O=C(O)C(F)(F)F.O=C(c1cccnc1)N1CCC2(CC1)CCN(c1ccsc1)C2=O	5.251%
FC(F)(F)c1cc(NCCCn2cccn2)nc(-c2cccnc2)n1	4.114%
CCNC(=O)[C@@H]1C[C@H](N)CN1C(=O)c1c[nH]c2ccccc12	3.374%
Cc1ccc(N2CCC3(CCC(=O)N3Cc3ccncc3)CC2)nn1.O=C(O)C(F)(F)F	3.038%
N#Cc1cccc(CS(=O)(=O)NCCC(O)c2ccccc2)c1 (centres unmarked)	-9.657%
CCN(CC)Cc1ccc(C(=O)N2CCCC2Cn2cccn2)o1 (centres unmarked)	-5.987%
CCC(=O)N1CCC(c2nc(C)ncc2-c2ccncc2)CC1	1.976%
O=C(O)CC(O)(CC(=O)O)C(=O)O.c1cncc(-c2nccc(CN3CCC(N4CCCCC4)CC3)n2)c1	-0.1788%
[H][C@@]12CCN(Cc3cccs3)C[C@@]1([H])O[C@@H](c1ccncn1)C2	-11.28%
CCCC(=O)N1CCC(O)(Cn2c(CC)nc3ccccc3c2=O)CC1.Cl	-2.251%
Cc1cc(NC(=O)NCc2ccccc2OC(F)F)n(C)n1	-4.773%
[H][C@@]12C[C@@H](c3nnc(C4CC4)o3)O[C@]1([H])CN(C(=O)c1cccn1C)C2	2.674%
CCc1n[nH]c(C(=O)NCCn2ccc(C)n2)c1C	24.73% and 37.75% and 3.334%
Cn1nc(C(=O)NC2CCCC2)cc1NC(=O)C1CC1	-1.088%
CCC(=O)N1CCCC(c2ncc3c(n2)CCN(C)C3)C1 (centres unmarked)	-1.004%
c1coc(CN2CCC3(CC2)CC(N2CCCC2)CO3)c1 (centres unmarked)	19.85%
CS(=O)(=O)N[C@@H]1CCN(Cc2cccnc2)[C@H]1Cc1cccnc1	11.78%
N#CC1C(=O)Nc2c(cnn2C2CCCC2)C12CCCCC2 (centres unmarked)	-1.001%
NC(=O)CN1CCCN(C(=O)c2ccn(-c3ccccc3)n2)CC1	-10.08%
Cc1ccccc1CSc1nc(N)cc(N2CCOC(C(N)=O)C2)n1 (centres unmarked)	-13.84%
CC(=O)N1CC2(CCN(c3ccc4ccccc4n3)CC2)CC1C(=O)O (centres unmarked)	-9.077%
CN(C)Cc1nnc(C2CCN(C(=O)CCc3cccs3)CC2)n1C	-3.412%
O=C(NCc1ccccn1)NC1CCCN(c2ncccn2)C1 (centres unmarked)	4.153%
Cc1cc(C)c(CNC(=O)NCC(O)COc2ccccc2)c(=O)[nH]1 (centres unmarked)	9.535%
COCc1nc(C(=O)NS(=O)(=O)c2cc(Br)ccc2C)cs1	5.177%
Cc1nn(C)c(Cl)c1C1CCCN1C(=O)c1cc[nH]n1 (centres unmarked)	6.72%
O=C(CC1CC1)NCc1cn2c(n1)CN(CC1CC1)CC2.O=C(O)C(F)(F)F	5.882%
CCn1ccnc1CN1CCN(CCOc2ccc(C#N)cc2)CC1	8.739%
O=C(NCCc1cccc(O)c1)NC1CCN(c2ccccc2)C1=O (centres unmarked)	3.004%
[H][C@@]12CCN(S(C)(=O)=O)[C@@]1([H])CCN2C(=O)c1cc(C)oc1C	11.56%
CCN(C)S(=O)(=O)N(CC)Cc1ccc2c(c1)OCO2	4.906%
CNS(=O)(=O)Cc1cccc(CNCc2ccsc2)c1	-0.9879%
O=C(CCOc1ccccc1F)NC1CCCN(c2ccccn2)C1 (centres unmarked)	0.8669%
CC(=O)N(Cc1ncc(C)o1)C1CCN(CCc2cnn(C)c2)C1 (centres unmarked)	4.206%
CC(CCNC(=O)N(C)CC1CCOCC1)N1CCCCC1 (centres unmarked)	22.36%
CC1CN(CC(=O)N2CCCC2)CCN1c1ccc2nncn2n1 (centres unmarked)	12.67%
Cn1cc(C[C@H]2[C@H](O)CCN2Cc2ccc(F)cc2)cn1.O=C(O)C(F)(F)F	6.959%
COCC1CN(Cc2ccccn2)Cc2nn(C)cc21 (centres unmarked)	0.8323%
O=C(NCCN1CCC(c2cccs2)CC1)c1ccccc1C(F)(F)F	-10.51%
CCc1nc(C2CCCN2C(=O)CCc2ccc3c(c2)OCO3)no1 (centres unmarked)	3.926%
Cn1cc(N2CC3(CCN(Cc4nccn4C)C3)CC2=O)cn1.O=C(O)C(F)(F)F (centres unmarked)	18.32%
NC(=O)C1CCN(C(=O)NCc2ccccc2-n2cccn2)CC1	9.793%
O=C(O)C(F)(F)F.O=C(O)C(F)(F)F.[H][C@@]12CCN(Cc3cccnc3)C[C@]1(C(=O)N1CCCO1)CCO2	-27.9% and -27.86% and 1.518%
Cn1ccc(C(=O)NC2CCN(c3ncccn3)CC2)cc1=O	-4.64%
O=C(O)C(F)(F)F.O=C(O)C(F)(F)F.[H][C@@]12COC[C@]1(C(=O)NCc1ccccn1)CN(C1CCC1)C2	-12.45%
NS(=O)(=O)c1cnn(CC(=O)Nc2c(Cl)cccc2Cl)c1	-14.46%
CC(C)c1ncc(CN2CCC(O)(c3ccccc3F)CC2)cn1	6.276%
Cc1nc(CN2CCCC2Cn2cncn2)nc2ccccc12 (centres unmarked)	-8.166% and 0.5039% and 9.588%
CCOC1CC2(CCN(C(=O)Cc3ccccn3)CC2)C1.O=C(O)C(F)(F)F	6.559%
CC(C)Cc1cc(NC(=O)c2cccnc2)n(C)n1	2.537%
CNC(=O)c1ccc(C2CN(C(=O)c3cncs3)CCO2)nc1 (centres unmarked)	-14.81%
COc1c(C2CCCN2C(=O)CCNc2ncccn2)c(C)nn1C (centres unmarked)	2.08%
Cc1cnc(NC(=O)c2ccc(-n3ncc(C#N)c3N)cc2)s1	-6.332%
O=C(C1CCCO1)N1CCC2(CC1)COCCN2CC1CC1 (centres unmarked)	-7.04%
CNC(=O)C1CN(C(=O)c2cccnc2)CCN(S(C)(=O)=O)C1 (centres unmarked)	14.38%
COCCN1CCN(CC(=O)N(C)Cc2ccc(F)cc2)CC1C (centres unmarked)	15.28%
Cc1ccc(CC(=O)N2CCCC(c3cc(C)[nH]n3)C2)cn1 (centres unmarked)	-12.45%
CC(O)CN1CCC(CNCc2cccc(Br)c2)CC1 (centres unmarked)	8.32%
COc1c(F)cc(-c2cn(CCn3c(C)cc(C)nc3=O)nn2)cc1Cl	2.899%
Cc1ccccc1Cn1cnc2oc(C)c(C(=O)O)c2c1=O	5.796%
COCC(=O)N1CCC(c2c(C(=O)N(C)C)sc3ncccc23)C1 (centres unmarked)	12.26%
CC(C)CNC(=O)N1CCC2(CC1)OC(C(N)=O)Cn1ccnc12.O=C(O)C(F)(F)F (centres unmarked)	-2.998%
Cc1nccn1C1CCCN(C(=O)Cn2ccc(=O)n(C)c2=O)C1 (centres unmarked)	-14.13%
CC(C)CC(=O)N1CCN(C(=O)N(C)C)CC2(CC(=O)N(C)C2)C1 (centres unmarked)	-23.9%
c1cncc(CN2CCn3cc(CN4CCCCC4)nc3C2)c1	-5.907%
CN(Cc1ccc(OC(F)F)cc1)C(=O)CS(=O)(=O)c1ccc(Cl)cc1	-5.765%
CC(=O)N1CCCCC1c1nc(C)cc(-c2ccccc2C(=O)O)n1 (centres unmarked)	1.112%
Cc1ccc(NC2CCN(C(=O)c3cccn3C)CC2)nn1	12.26%
Cc1n[nH]c(=O)c2c(NC(=O)CN3CCCC(C(F)(F)F)C3)oc(C)c12 (centres unmarked)	4.187% and -4.162% and 6.26%
NC(=O)c1cccc(CC2CCN(C(=O)CCc3cccc(F)c3)C2)c1 (centres unmarked)	-16.05%
Cc1ccc([C@@H]2CN(S(=O)(=O)c3cccs3)C[C@H]2N(C)C)cc1	2.076%
CC(C)NC(=O)[C@@H](NC(=O)N1CCN(c2ccc(Cl)cc2)CC1)C(C)C	9.044%
Cc1cc(N(C)CCN(C)C2CCCC2)n2nc(C)cc2n1	-2.784% and -20.46%
O=C(NCCNc1cnccn1)N1CCCC(N2CCCC2)C1 (centres unmarked)	17.41%
CCC1(CC)Cc2ccccc2-c2nc(NCCCO)[nH]c(=O)c21	5.177%
CC(C)(C)NC(=O)CNc1ncc(Br)cn1	2.682%

4 of the entries, repeated:

{"structure": "Cn1cc(N2CC3(CCN(Cc4nccn4C)C3)CC2=O)cn1.O=C(O)C(F)(F)F", "stereo": "centres unmarked", "Percent Effect": 18.32}
{"structure": "Cc1ccccc1Cn1cnc2oc(C)c(C(=O)O)c2c1=O", "Percent Effect": 5.796}
{"structure": "O=C(NCCN1CCOCC1)N1CCN(c2ccccc2)CC1", "Percent Effect": -8.049}
{"structure": "Cc1cnc(NC(=O)c2ccc(-n3ncc(C#N)c3N)cc2)s1", "Percent Effect": -6.332}

The values are deposited in ChEMBL (CHEMBL3988442, “University of Dundee, Small-Polar-MMV Screening Library” (2021)).